In publication PMC12720780:
These are yes or no findings as the source states them, for the method shown. Some binding calls cover weakened binding; strength is not graded here.

Target: Ntr1 (neurotensin receptor, GPCR, Homo sapiens) (human) (UniProt P30989)
Experiment: SDS-PAGE with Western blot; Eluates from Ni-NTA Superflow (sulfo-SMA and DIBMA-glucosamine conditions); reducing SDS-PAGE, samples not boiled; immunoblot; band densitometry; both purified

binding: binds
Substance: Ntr1 (neurotensin receptor, GPCR, Homo sapiens) (from UniProt P30989 1-418)
